From the supplement of paper PMC3334620
In all, about 33,000 sequences were measured (“E-score (-0.5 to 0.5)”: median about -0.0059, highest 2% from about 0.26 on). The list shows a part of the results.

The sequences below were run against T1, Cin5 (UniProt P40917) (assay: PBM E-score (8-mer binding enrichment) (E-score (-0.5 to 0.5)); higher = stronger / more preferred TF binding). Details: protein concentration: 100 nM; construct: GST-full length.
T1 sequence: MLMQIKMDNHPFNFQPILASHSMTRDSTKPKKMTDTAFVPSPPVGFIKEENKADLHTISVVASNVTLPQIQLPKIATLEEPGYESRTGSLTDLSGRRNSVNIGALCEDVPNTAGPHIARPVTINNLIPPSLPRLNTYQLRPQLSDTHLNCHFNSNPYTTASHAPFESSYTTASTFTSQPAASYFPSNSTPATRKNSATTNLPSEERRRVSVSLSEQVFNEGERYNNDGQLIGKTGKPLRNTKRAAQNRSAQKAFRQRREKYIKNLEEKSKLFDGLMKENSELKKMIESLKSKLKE
Summary of the method: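 Yeast transcription factors, full-length or as DNA-binding domains, were expressed with a GST tag using PURExpress in vitro transcription/translation. At about 100-200 nM they were applied to universal all-10-mer Agilent arrays, double-stranded by primer extension on fresh or once-stripped slides. Fluorescent anti-GST detected bound protein, and masliner normalised the scans. E-scores for ungapped eight-base words, pooled with reverse complements, came from the Universal PBM Analysis Suite.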

Row | Sequence | PBM E-score
1 | GTCGAGCA | -0.284
2 | CGCCTGAC | 0.115
3 | ATCTGCGA | 0.00217
4 | CCCGATCG | 0.0791
5 | ATGGAGTC | -0.0755
6 | GAACTGCC | -0.0591
7 | GACCGATA | 0.0301
8 | CGGTGGAA | -0.0968
9 | CAAGTCAG | -0.0103
10 | AACTTAAG | -0.095
11 | GAAGATAA | 0.136
12 | AGGGAAAG | -0.113
13 | ACGCAACT | 0.178
14 | CTTGGATC | 0.0513
15 | GCAAGCGA | 0.0653
16 | CGACAACC | -0.13
17 | AACCAAGA | 0.102
18 | AAGGGATA | 0.058
19 | CAGCTCGC | 0.00031
20 | AGTTGAAT | 0.259
21 | AAAGAGCT | -0.177
22 | AATTTCTC | 0.164
23 | TCCACCAA | 0.0494
24 | CTGAAAGC | 0.0475

Row | Sequence | PBM E-score
25 | ATGGACTG | -0.0285
26 | AGCTATAG | -0.209
27 | CGACTACA | 0.0644
28 | AGCAAAGA | -0.00928
29 | GGGGGTAC | -0.362
30 | AGGACCGC | 0.01
31 | GAAATTTC | -0.0536
32 | GAGTACTA | 0.0661
33 | CGTGCGCC | 0.0322
34 | ATGTGCGA | -0.106
35 | GCGGATAC | 0.0777
36 | ATGGCGGA | -0.174
37 | ATTGGTCC | 0.0852
38 | CACCAAGA | -0.0891
39 | AACGTTGG | 0.0395
40 | AGGAGACT | -0.208
41 | CACGCTCA | 0.126
42 | AGTGGCAA | -0.00498
43 | ATAAGTCG | 0.151
44 | AACCCTCC | -0.209
45 | CTAAAGGA | -0.186
46 | GGGTAGGA | -0.0656
47 | CCGAACGG | -0.0763
48 | CTCCACAA | 0.0534

Reformatted tab-delimited: entries from further up
Row	Sequence	PBM E-score
14	CTTGGATC	0.0513
48	CTCCACAA	0.0534

Additional entries:

Row | Sequence | PBM E-score
49 | GCCCAAAA | 0.02
50 | ATTTTTTG | 0.187
51 | CAGTCATG | -0.0937
52 | CAATACTA | 0.0648
53 | AACGACTT | -0.234
54 | CTTAGAAG | -0.0753
55 | GACTCCTA | -0.074
56 | AGCGTATG | 0.0127
57 | AGCATCGC | -0.174
58 | AAACGTTG | -0.0943
59 | CCCGGGTA | -0.0532
60 | CATTCTAC | 0.1
61 | ACGTCGTG | 0.0103
62 | CCCCACAG | -0.225
63 | GATCTACC | 0.00231
64 | AACATACA | 0.0814
65 | CGGCTTAA | 0.19
66 | ACCGTGCG | -0.139
67 | GTTCCTCA | -0.244
68 | AGCAATAG | -0.0777
69 | GTAGGCAA | -0.0158
70 | AGAGGCTA | -0.114
71 | AGTTTCCA | -0.0283
72 | ATTGCTGG | -0.0177

Row | Sequence | PBM E-score
73 | TATCCACA | 0.154
74 | CTATGGAC | -0.0786
75 | ACGTCTTG | -0.161
76 | CGTAGCTA | -0.0516
77 | AATAATCC | 0.0532
78 | ACCCGCCC | 0.129
79 | AACTCTGG | 0.0344
80 | GTACCTAA | -0.0371
81 | CTGGCTAC | -0.24
82 | CGGGCTGC | -0.116
83 | GATTTATA | 0.179
84 | AACCCTGC | -0.0766
85 | ATGTGTCA | 0.135
86 | CACATATG | 0.0201
87 | ACAATCCT | 0.00738
88 | TCCGATAA | -0.151
89 | AGTGGATA | 0.171
90 | GAGTATGA | 0.141
91 | ACTATTGA | 0.211
92 | CGGGGGAG | -0.389
93 | TGCACTAA | 0.189
94 | AGATTCGG | 0.0517

A different layout for some results above:
Row	Sequence	PBM E-score
73	TATCCACA	0.154
75	ACGTCTTG	-0.161
76	CGTAGCTA	-0.0516
77	AATAATCC	0.0532
78	ACCCGCCC	0.129
80	GTACCTAA	-0.0371
81	CTGGCTAC	-0.24
82	CGGGCTGC	-0.116
84	AACCCTGC	-0.0766
85	ATGTGTCA	0.135
86	CACATATG	0.0201
87	ACAATCCT	0.00738
88	TCCGATAA	-0.151
89	AGTGGATA	0.171
90	GAGTATGA	0.141
91	ACTATTGA	0.211
92	CGGGGGAG	-0.389
93	TGCACTAA	0.189
94	AGATTCGG	0.0517
